Screen size: about 390,000 compounds; about 910 (0.23%) were called active. The shares of active, inactive and inconclusive entries below differ from those in the screen. The call rests on the fitted dose curve; in most records, active means well fitted inhibition curve with a large enough effect; inconclusive means small, poorly fitted or top-dose-only effect; inactive means no such curve, though single readings can be large or run the other way. Potencies beside an inconclusive call are fits to weak or partial responses and may not hold up.
biological target: Ubiquitin carboxyl-terminal hydrolase 1 (Homo sapiens) (UniProt O94782); assay: Inhibitors of USP1/UAF1: Primary Screen; conditions: recombinant USP1/UAF1, Ub-Rhodamine cleavage fluorescence; activity change, negative = inhibition: at 57.1 µM (top of the series); further: nearly all actives have a fitted effect of over 60% in size
Outline: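 USP1/UAF1 complex at 1 nM was preincubated with compound for 15 min at room temperature, then Ub-Rho substrate (150nM final) was added. Fluorescence (480/540 nm) was read kinetically, 6 reads every 60 seconds.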
On the % scale 0 is the no-effect control and ±100 the full control effect; potency means the concentration at half of the fitted maximal effect.

The chains behind the UniProt entries cited, without tags or fusion partners. Where a name states a change or a piece, a line headed by the entry shows the natural chain unless it says otherwise.
UniProt O94782: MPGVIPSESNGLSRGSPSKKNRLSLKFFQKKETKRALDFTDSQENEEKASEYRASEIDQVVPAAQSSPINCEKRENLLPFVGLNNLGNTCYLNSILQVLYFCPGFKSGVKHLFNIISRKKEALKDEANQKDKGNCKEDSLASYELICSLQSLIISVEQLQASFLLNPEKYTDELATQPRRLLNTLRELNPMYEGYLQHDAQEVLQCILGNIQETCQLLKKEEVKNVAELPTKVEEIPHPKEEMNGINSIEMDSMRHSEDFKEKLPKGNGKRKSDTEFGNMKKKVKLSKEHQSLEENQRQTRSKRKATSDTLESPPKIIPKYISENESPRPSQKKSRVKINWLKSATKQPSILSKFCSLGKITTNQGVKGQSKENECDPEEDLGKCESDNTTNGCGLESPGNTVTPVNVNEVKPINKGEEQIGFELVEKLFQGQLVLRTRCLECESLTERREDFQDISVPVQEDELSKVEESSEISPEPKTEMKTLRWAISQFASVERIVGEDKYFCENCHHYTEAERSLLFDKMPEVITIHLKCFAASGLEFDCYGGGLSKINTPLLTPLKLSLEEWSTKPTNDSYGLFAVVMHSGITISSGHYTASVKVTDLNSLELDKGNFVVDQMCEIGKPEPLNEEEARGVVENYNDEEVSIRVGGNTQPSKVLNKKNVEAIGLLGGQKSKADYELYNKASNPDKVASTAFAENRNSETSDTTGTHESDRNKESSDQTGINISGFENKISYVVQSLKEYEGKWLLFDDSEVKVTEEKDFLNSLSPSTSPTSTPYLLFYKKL

Potency, inactive:
COC(=O)CN1C(=O)C2(C(C#N)=C(N)Oc3c2c(C)nn3-c2ccccc2)c2ccccc21 (stereo unspecified)
Cc1ccc(-n2nnc3c(sc4nc(C)c(C)cc43)c2=O)cc1Cl
CCOc1ccc(N2CC(c3nc(-c4cc(OC)c(OC)c(OC)c4)no3)CC2=O)cc1 (stereo unspecified)
CCCc1cc(N2CCN(c3cc(Cl)ccc3C)CC2)n2cnnc2n1
CCOC(=O)c1[nH]c2ccc(Br)cc2c1NC(=O)CCN1CCC(C(=O)OCC)CC1
CCCCN(C)c1nnc(NC(=O)Nc2cccc(C(C)=O)c2)s1
CC1(C)CSC(=NCc2ccccc2)N1C(=O)c1cccc([N+](=O)[O-])c1
O=c1c2ccccc2[nH]c2ccc(O)cc12
O=C(Nc1cccc(Cl)c1)N1CCOCC1
COCc1cc(CN2CCCC2)c(O)c2ncccc12
COc1ccc(-c2cc(C(=O)OCC(=O)c3ccc(C)cc3)c3cccc(Cl)c3n2)cc1
O=[N+]([O-])c1cccc(/C=N\N=C2c3ccccc3-c3ccccc32)c1O
CCCCNC(=O)C(CC)Sc1nnc(-c2cccc(F)c2)c(-c2cccc(F)c2)n1 (stereo unspecified)
COc1ccc2oc(=O)cc(CN3CCN(c4ccc(F)cc4)CC3)c2c1
CC1CCN(c2ccc(/C=N/n3nnnc3N)cc2[N+](=O)[O-])CC1
Cc1c2cnn(CC(=O)NCc3ccc(F)cc3)c(=O)c2c(C)n1Cc1ccccc1Cl
CCOc1cc(Br)c(C2C(C(=O)OC)=C(C)NC3=C2C(=O)c2ccccc23)cc1OCC (stereo unspecified)
COC(=O)c1ccc(C2/C(=C(/O)c3ccc(OC)cc3)C(=O)C(=O)N2Cc2ccco2)cc1 (stereo unspecified)
CC(C)N(C)C(=O)c1ccc(OC2CCN(CCc3ccccc3)CC2)cc1
CC(Oc1ccc(Cl)cc1Cl)c1ccn[nH]1 (stereo unspecified)
COc1ccc(-c2cc(C(F)(F)F)nc(SCC(=O)Nc3ccc(C(C)=O)cc3)n2)cc1
O=C(/C=C/Nc1cccc([N+](=O)[O-])c1)c1ccco1
CCOC(=O)c1c(-c2cccc([N+](=O)[O-])c2)csc1N

Reprinted at random: six records from the list, in no set order.
Potency, inactive:
CC(Oc1ccc(Cl)cc1Cl)c1ccn[nH]1 (stereo unspecified)
Cc1ccc(-n2nnc3c(sc4nc(C)c(C)cc43)c2=O)cc1Cl
O=[N+]([O-])c1cccc(/C=N\N=C2c3ccccc3-c3ccccc32)c1O
COc1ccc(-c2cc(C(F)(F)F)nc(SCC(=O)Nc3ccc(C(C)=O)cc3)n2)cc1
Cc1c2cnn(CC(=O)NCc3ccc(F)cc3)c(=O)c2c(C)n1Cc1ccccc1Cl
CCOC(=O)c1c(-c2cccc([N+](=O)[O-])c2)csc1N

Following part:

Potency, active:
COc1ccc(C2=CC3=C(Br)C(=O)C(C)(OC(=O)c4ccco4)C(=O)C3=CO2)cc1 (stereo unspecified) 25.1 µM
CC(C)(C)C(=O)/C=c1\s/c(=C\c2ccc(-c3ccc([N+](=O)[O-])cc3)o2)c(=O)n1CC(=O)NC(N)=O 7.94 µM
NC(=O)c1c(NC(=O)c2ccccc2)sc2c1CCN(Cc1ccccc1)C2 8.91 µM

Potency, inconclusive:
O=C(Cn1c(=O)n(Cc2ccc3c(c2)OCO3)c(=O)c2ccccc21)Nc1cccc(Cl)c1 0.316 µM [inhibitor, full curve, poor fit]
CCCCn1c(N)c(-c2nc3ccccc3o2)c2c([N+](=O)[O-])nn(C)c(=O)c21 1.12 µM [inhibitor, full curve]
Cc1ccc(N(C)S(=O)(=O)c2ccc3[nH]cc(C(=O)NCCCN4CCOCC4)c(=O)c3c2)cc1C 22.4 µM [inhibitor, partial curve]
CC(=O)Nc1ccc(Sc2ccc([N+](=O)[O-])o2)cc1 7.08 µM [inhibitor, single point]
CCCCNC(=O)c1cc2ccccc2s1 0.708 µM [inhibitor, full curve, poor fit]
COc1ccc(-n2nc(C(=O)NCC(=O)Nc3cc(C)ccc3OC)c3ccccc3c2=O)c(OC)c1 0.447 µM [inhibitor, full curve, poor fit]
CC(=O)OCC#CCSc1nnc(-c2cccc(Br)c2)o1 0.562 µM [inhibitor, full curve, poor fit]
COc1cccc2c1C(=O)c1c(O)c3c(c(O)c1C2=O)CC(O)(C(=O)CO)CC3OC1CC(N(C)C)C(O)C(C)O1 (stereo unspecified) 28.2 µM [inhibitor, partial curve]
COC(=O)c1ccc(CN2CCCC(CCC(=O)NCc3ccc(C)o3)C2)cc1 (stereo unspecified) 7.94 µM [inhibitor, full curve, poor fit]
O=c1[nH]c(Nc2ccc3c(c2)OCCO3)nnc1Cc1ccccc1 28.2 µM [inhibitor, partial curve, poor fit]
COc1ccc(CNC(=O)Cn2nc(C)c3nn(-c4ccc(Cl)cc4)c(C)c3c2=O)cc1 1.12 µM [inhibitor, full curve]
CC(=O)/C(N=Nc1cc2c(c([N+](=O)[O-])c1C)C(C)(C)CC2(C)C)=C(\C)O 8.91 µM [inhibitor, single point]
CCn1c(CNC(=O)COc2ccc(C(C)C)cc2)nnc1SCC(=O)Nc1ccccc1F 0.631 µM [inhibitor, full curve, poor fit]
COC(=O)c1c(NC(=O)c2cc3nc(-c4ccc(OC)cc4)cc(C(F)(F)F)n3n2)sc2c1CCCC2 126 µM [inhibitor, partial curve, poor fit]
COc1ccc(NC(=O)Cn2c(=O)n(-c3ccccc3)c(=O)c3c4c(sc32)CCCC4)cc1 0.282 µM [inhibitor, full curve]
CC(C)S(=O)(=O)C1=NSC2=NC(=O)/C(=C\c3ccc(-c4cccc(C(=O)O)c4)o3)C(=N)N21 28.2 µM [inhibitor, single point]
O=C(/C=C/Nc1ccc(Oc2ccccc2)cc1)c1ccco1 44.7 µM [inhibitor, partial curve, poor fit]
COc1ccccc1C(=O)Nc1ccccc1N1CCOCC1 35.5 µM [inhibitor, partial curve]
CN(C)C(CNC(=O)C1CCN(S(=O)(=O)c2cccc(Cl)c2Cl)CC1)c1ccccc1 (stereo unspecified) 50.1 µM [inhibitor, partial curve, poor fit]
C=C(C)CSc1nc(N)c2c(C)c(C)sc2n1 50.1 µM [inhibitor, partial curve, poor fit]
CC(C)Cn1c(=O)c2ccccc2n2c(CCC(=O)NCc3ccccc3Cl)nnc12 0.708 µM [inhibitor, full curve, poor fit]
Cc1cccc(NC(=O)CSc2nc(COc3ccccc3)nc3ccccc23)c1C 0.355 µM [inhibitor, full curve, poor fit]
CCS(=O)(=O)N1CCCC(C(=O)N2CCc3ccccc3C2)C1 (stereo unspecified) 39.8 µM [inhibitor, partial curve]
CCOc1ccccc1NC(=O)C(Cc1ccccc1)NS(=O)(=O)c1ccc2c(c1)oc(=O)n2C (stereo unspecified) 5.62 µM [inhibitor, partial curve]
CC(C)CN1C(=O)C(=O)N(CC(=O)N2CCC(Cc3ccccc3)CC2)C1=O 1.26 µM [inhibitor, partial curve]
C#CCOCCOCCOCCNc1nc(N2CCN(C(=O)Cn3cc(CCCCN)nn3)CC2)nc(N2CCN(C(=O)[C@H]([C@@H](C)CC)n3cc(CCCN=C(N)N)nn3)CC2)n1 14.1 µM [inhibitor, partial curve, poor fit]
CC(c1ccco1)N(C(=O)c1cc(Cl)cc(Cl)c1)c1ccccn1 (stereo unspecified) 44.7 µM [inhibitor, partial curve, poor fit]
Cc1cccc(C(=O)Nc2ccc(-c3nc4ccccc4s3)cc2Cl)c1 3.98 µM [inhibitor, full curve, poor fit]
COc1ccc(CCC(=O)NC2CC(=O)N(c3ccc(C)cc3)C2)cc1 (stereo unspecified) 35.5 µM [inhibitor, single point]
Cc1sc2c(c1C)c(=O)n(CCc1ccccc1)c(=O)n2Cc1cccc(F)c1 4.47 µM [inhibitor, partial curve]
COc1ccc(N2C3=C(CC4=C2CC(C)(C)CC4=O)C(=O)CC(C)(C)C3)cc1 28.2 µM [inhibitor, single point]
Cc1cccc(C(=O)Nc2nnc(S(=O)(=O)N3CCCCCC3)s2)c1 0.631 µM [inhibitor, full curve, poor fit]
Cc1nc(S(=O)(=O)Nc2ccc3c(c2)OCCO3)cn1C 3.98 µM [inhibitor, partial curve]
COc1cc(/C=N/NC(=O)c2cc(C3CC3)[nH]n2)cc(OC)c1OC 15.8 µM [inhibitor, partial curve, poor fit]
Cc1ccc(-n2ncc3c2CC(C)(C)CC3NC(=O)c2ccccn2)cc1 (stereo unspecified) 50.1 µM [inhibitor, partial curve, poor fit]
O=C1C2C(c3ccccc3)CC=CC2[C@H](c2ccc3ccccc3c2)N1Cc1ccccc1 (stereo partly specified) 35.5 µM [inhibitor, single point]
O=C1NC(=O)C(c2ccccc2)(c2ccccc2)N1 10 µM [inhibitor, full curve, poor fit]
Cc1cc(Nc2cccc(O)c2)c2cccc(Br)c2n1 6.31 µM [inhibitor, single point]
CSc1nnc(-c2ccc(C(F)(F)F)nc2C)o1 6.31 µM [inhibitor, single point]

Activity change, negative = inhibition, inconclusive:
COc1ccc(OCCC(=O)NCCN2CCOCC2)cc1 -7.23% [inhibitor]

Source: PubChem BioAssay AID743255 (National Center for Advancing Translational Sciences (NCATS), 2014)
